The values that follow come from PMC7271564 (Haematologica, 2019).

The subject of test [1] is CD34+CD38+ cells (CPC/blast). Description: HTFC drug sensitivity assay, progenitor/blast cells. The test is classed as cell-based. Particulars: Homo sapiens, read-out: median IC50, CD34+CD38+/blast cells from FLT3-ITD mutated AML samples (n=5), Cohort II.
In another test the test system is CD19+/B cells. Description: High throughput no-wash flow cytometry. The test is classed as cell-based. Particulars: Homo sapiens, B-cell, read-out: median IC50, CD19+/B cells from healthy donor or patient samples (AML, CLL), Cohort II.

Where “and” joins values, the source holds several entries; their conditions need not be identical. Identical values can stand only once.

In the case of `CO[C@@H]1[C@H](N(C)C(=O)c2ccccc2)C[C@H]2O[C@]1(C)n1c3ccccc3c3c4c(c5c6ccccc6n2c5c31)C(=O)NC4` [midostaurin], the IC50 is 554 nM in test [1]; 314 nM and 319 nM in the test on CD19+/B cells.
